Data source: PubChem BioAssay AID743454 (Peter MacCallum Cancer Centre, 2014)
Assay: 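Search for knock-downs that restore vorinostat killing in resistant colon cancer cells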 (primary screen). Cell system: human HCT116-VR colon cancer cells, selected for vorinostat resistance. Reagent: siRNA pool against human genes, 40 nM siRNA pool. Duration: vorinostat for 24 h, read-out about 72 h after transfection. Treatment: vorinostat at 2.5 µM final. Read-out: 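Two measures, CellTiter-Fluor viability and luminescent caspase 3/7 activity, each as fold change against same-plate mock wells, mean of duplicates, then screen-wide robust z-score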. Direction: viability robust z-score: higher = more viable cells than screen typical; caspase robust z-score: higher = more caspase 3/7 activity than screen typical. Hit rule: 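Hits are knock-downs in viability class RV1/RV2 or caspase class CA1/CA2, excluding ones that killed cells in the no-drug cell-count arm; hits then retested with single siRNAs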.
Here is a random part of about 18,000 reagents. Of all reagents, 450 (2.5%) are marked active. 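Single biological run; no consistent viability z cut-off exists, so the class columns, not z-scores, define the calls.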

gene | viability hit class | caspase hit class | viability robust z-score | caspase robust z-score | Call
PPP3R1 | no change | no change | -0.56 | -0.15 | inactive
TIMP3 | no change | no change | 0.04 | 0.36 | inactive
CADM1 | no change | no change | -1.13 | -0.14 | inactive
LIX1 | no change | no change | 0.16 | -0.52 | inactive
MIEN1 | no change | no change | -0.49 | 0.94 | inactive
REG3A | no change | no change | -1.26 | 1.77 | inactive
UGT1A7 | no change | no change | 0.13 | -1.27 | inactive
TBCC | no change | no change | 1.06 | 0.24 | inactive
OR2A42 | no change | no change | -0.95 | 1.43 | inactive
SPRR2E | no change | no change | -1.87 | -1.15 | inactive
TTLL4 | no change | no change | -0.34 | -0.22 | inactive
PUF60 | RV2 (reduced viability) | CA2 (caspase activation) | -3.61 | 9.61 | active
GMDS | no change | no change | 2.13 | -0.39 | inactive
AIM2 | no change | no change | -0.39 | -0.76 | inactive
NAGA | no change | no change | -0.62 | -0.96 | inactive
RBX1 | no change | no change | -1.53 | 1.93 | inactive
EXOSC7 | no change | no change | -0.34 | 0.42 | inactive
BRD4 | no change | no change | -0.5 | 2.96 | inactive
CWC15 | no change | no change | -2.63 | 0.04 | inactive
WDR83 | no change | no change | -2.16 | 1.25 | inactive
RFX1 | no change | no change | 1.62 | 0.1 | inactive
FARSB | no change | no change | -0.59 | -0.78 | inactive
DAZ2 | no change | no change | 0.54 | 0.38 | inactive
TMEM123 | no change | no change | -0.12 | -0.94 | inactive
COL25A1 | no change | no change | -0.14 | 0.11 | inactive
IL33R | no change | no change | 0.01 | 1.46 | inactive
PYROXD1 | no change | no change | 0.24 | -0.06 | inactive
LBP | no change | no change | -1.52 | 1.54 | inactive
PRP4K | no change | no change | -2.04 | 2.17 | inactive
HDGFL3 | no change | no change | 0.98 | 0.7 | inactive
RPS10 | RV2 (reduced viability) | no change | -4.96 | -0.79 | active
OR6A2 | no change | no change | 0.3 | -0.22 | inactive
GEMIN5 | no change | no change | 1.22 | -0.92 | inactive
RNF43 | no change | no change | -0.23 | 3.27 | inactive
ZFR | no change | no change | 0.73 | 0.66 | inactive

4 consecutive records from above, for reference:
gene | viability hit class | caspase hit class | viability robust z-score | caspase robust z-score | Call
NAGA | no change | no change | -0.62 | -0.96 | inactive
RBX1 | no change | no change | -1.53 | 1.93 | inactive
EXOSC7 | no change | no change | -0.34 | 0.42 | inactive
BRD4 | no change | no change | -0.5 | 2.96 | inactive

Further reagents:
gene | viability hit class | caspase hit class | viability robust z-score | caspase robust z-score | Call
CELSR3 | no change | no change | -1.92 | 2.6 | inactive
FAM3D | no change | no change | 0.05 | -1.02 | inactive
PCBP1 | no change | no change | -0.07 | -0.12 | inactive
RHOQ | no change | no change | -0.3 | -1.14 | inactive
RNLS | no change | no change | 0.88 | 2.09 | inactive
NAA80 | no change | no change | 1.5 | -0.8 | inactive
CDK14 | no change | CA2 (caspase activation) | -1.43 | 6.47 | active
MCF2L2 | no change | no change | 0.02 | -0.98 | inactive
NTAQ1 | no change | no change | 0.26 | -0.34 | inactive
KCNU1 | no change | no change | 1.03 | -0.32 | inactive
RAB4B | no change | no change | -1.56 | 2.65 | inactive
KRTAP12-4 | no change | no change | -0.26 | -0.39 | inactive
KRIT1 | no change | no change | -0.86 | -0.38 | inactive
SCO2 | no change | no change | 0.8 | -0.39 | inactive
POMT1 | no change | no change | 0.08 | -0.08 | inactive
SYNGAP1 | no change | no change | 0.46 | -0.66 | inactive
ZFAND2B | no change | no change | -0.8 | 3.1 | inactive
DUS3L | no change | no change | -0.79 | 3.08 | inactive
KHK | no change | no change | 0.24 | -0.95 | inactive
KIF3A | no change | no change | 0.61 | 0.3 | inactive
DHRS4L2 | no change | no change | -0.52 | -0.56 | inactive
SNAI1 | no change | no change | 0.7 | 2.16 | inactive
ASB13 | no change | no change | 1.23 | -0.36 | inactive
APAF1 | no change | no change | -1.44 | -1.06 | inactive
CFAP65 | no change | no change | -0.38 | -0.24 | inactive
RNASEL | no change | no change | 0.16 | 1.52 | inactive
NCAPH | no change | no change | 0.62 | 5.02 | inactive
CD5 | no change | no change | -0.31 | 0.26 | inactive
QTRT2 | no change | no change | -0.26 | 3.64 | inactive
RGS21 | no change | no change | 1.86 | -0.26 | inactive
KRTAP3-1 | no change | no change | -0.64 | 1.18 | inactive
ATAD3B | no change | no change | -0.45 | -0.25 | inactive
TMX2 | no change | no change | -0.7 | -0.92 | inactive
POLK | no change | no change | -1.46 | -0.45 | inactive
MDN1 | no change | no change | -1.23 | -0.92 | inactive
IFITM2 | no change | no change | 0.28 | 0.48 | inactive
EPS8 | no change | no change | -0.16 | -0.51 | inactive
PRDM6 | no change | no change | 1.51 | -0.23 | inactive
